# The supplement of paper PMC9744312
# Structures can show the parent of a compound that is named as a salt. Some of the results follow. Single values of this set are uncertain.
# Tested on: Peyronie's disease tunica albuginea primary fibroblasts
# Assay: inhibition of TGF-beta1-induced alpha-SMA expression (myofibroblast transformation), relative to TGF-beta1-only and untreated controls; higher = stronger inhibition of myofibroblast transformation
# Details: 10 µM; TGF-beta1 10 ng/mL; 72 h
row,Structure (SMILES),inhibition of TGF-beta1-induced alpha-SMA expression [%]
1,CC(C)[C@H]1CC[C@H](C(=O)N[C@H](Cc2ccccc2)C(=O)O)CC1 [Nateglinide],13.2
2,COc1ccc(-n2nc(C(N)=O)c3c2C(=O)N(c2ccc(N4CCCCC4=O)cc2)CC3)cc1 [Apixaban],9.65
3,COc1ccccc1OCCNCC(O)COc1cccc2[nH]c3ccccc3c12 (stereo not drawn) [Carvedilol],20.6
4,COc1ccccc1OCCNCC(O)COc1cccc2[nH]c3ccccc3c12 (stereo not drawn) [Carvedilol Phosphate],68.9
5,CC(C)c1nc(CN(C)C(=O)N[C@H](C(=O)N[C@@H](Cc2ccccc2)C[C@H](O)[C@H](Cc2ccccc2)NC(=O)OCc2cncs2)C(C)C)cs1 [Ritonavir],-14.9
6,CC1CCc2cc(F)cc3c(=O)c(C(=O)O)cn1c23 (stereo not drawn) [Flumequine],13.4
7,C[C@@H](O)[C@H]1C(=O)N2C(C(=O)OCOC(=O)C(C)(C)C)=C(SC3CN(C4=NCCS4)C3)[C@H](C)[C@H]12 [Tebipenem Pivoxil],35.6
8,C1CNCCNCCNCCN1 [Cyclen],6.6
9,CCCCOc1ccc(OCCCN2CCOCC2)cc1 [Pramoxine HCl],54.7
10,COC(=O)Nc1nc2cc(C(=O)c3ccc(F)cc3)ccc2[nH]1 [Flubendazole],78.8
11,CC(=O)O[C@H]1Cc2ccccc2N(C(N)=O)c2ccccc21 [Eslicarbazepine Acetate],-15.4
12,CCOC(=O)c1ccc(O)cc1 [Ethylparaben],-34.5
13,O=C(O[C@@H]1C[C@@H]2C[C@H]3C[C@H](C1)N2CC3=O)c1c[nH]c2ccccc12 [Dolasetron],1.22
14,COc1ccc2cc1Oc1ccc(cc1)C[C@H]1c3c(cc4c(c3Oc3cc5c(cc3OC)CCN(C)[C@@H]5C2)OCO4)CCN1C [Cepharanthine],34.9
15,CC(C)(C)NCC(O)c1ccc(O)c(CO)c1 (stereo not drawn) [Salbutamol Sulfate],-8.52
16,CC(C)(C)NCC(O)c1ccc(O)c(CO)c1 (stereo not drawn) [Salbutamol],4.41
17,O=C([O-])C(O)[C@H](O)[C@@H](O)[C@H](O)[C@H](O)CO.O=C([O-])C(O)[C@H](O)[C@@H](O)[C@H](O)[C@H](O)CO.[Ca+2] (stereo partly drawn) [Calcium Gluceptate],3.42

row,Structure (SMILES),inhibition of TGF-beta1-induced alpha-SMA expression [%]
1,Cc1c(OCC(F)(F)F)ccnc1C[S+]([O-])c1nc2ccccc2[nH]1 (stereo not drawn) [Lansoprazole],6.32
2,Cc1nccn1CCC(C(N)=O)(c1ccccc1)c1ccccc1 [Imidafenacin],34.6
3,"CC[C@H](Nc1ncnc2[nH]cnc12)c1nc2cccc(F)c2c(=O)n1-c1ccccc1 [Idelalisib (CAL-101, GS-1101)]",-27.2
4,CN(C)[C@@H](CCOc1cccc2ccccc12)c1ccccc1 [Dapoxetine HCl],31.5
5,CCCC(CCC)C(=O)O [Valproic acid],-18.7
6,CCCC(CCC)C(=O)O [Valproic acid sodium salt (Sodium valproate)],33.2
7,CCCC(CCC)C(=O)O [Divalproex Sodium],36.3
8,Cc1onc(-c2ccccc2)c1C(=O)N[C@@H]1C(=O)N2[C@@H]1SC(C)(C)[C@@H]2C(=O)O [Oxacillin sodium monohydrate],-3.86
9,OCC(O)CN1CCN(c2ccccc2)CC1 (stereo not drawn) [Dropropizine],-6.37
10,COc1cc(N)c(Cl)cc1C(=O)NC1CCN(CCCOc2ccc(F)cc2)CC1OC (stereo not drawn) [Cisapride],8.03
11,COc1cc(N)c(Cl)cc1C(=O)NC1CCN(CCCOc2ccc(F)cc2)CC1OC (stereo not drawn) [Cisapride hydrate],-22.9
12,CN(C)CCC(c1ccc(Cl)cc1)c1ccccn1 (stereo not drawn) [Chlorpheniramine Maleate],18.4
13,CCC(=O)NCC[C@@H]1CCc2ccc3c(c21)CCO3 [Ramelteon],2.13
14,COC1=CC(=O)C[C@@H](C)[C@]12Oc1c(Cl)c(OC)cc(OC)c1C2=O [Griseofulvin],36.8
15,O[C@@H](COc1cccc2ncccc12)CN1CCN(C2c3ccccc3[C@@H]3[C@H](c4ccccc42)C3(F)F)CC1 (stereo partly drawn),-3.23
16,NS(=O)(=O)NCCNc1nonc1/C(=N/O)Nc1ccc(F)c(Br)c1,17.9

# Reformatted: entries from further up
row | Structure (SMILES) | inhibition of TGF-beta1-induced alpha-SMA expression [%]
9 | OCC(O)CN1CCN(c2ccccc2)CC1 (stereo not drawn) [Dropropizine] | -6.37
10 | COc1cc(N)c(Cl)cc1C(=O)NC1CCN(CCCOc2ccc(F)cc2)CC1OC (stereo not drawn) [Cisapride] | 8.03
